We go through five molecules from article PMC10721647.

The chains behind the UniProt entries cited, without tags or fusion partners. Residues count along the entry.
UniProt P03186, residues 1-235: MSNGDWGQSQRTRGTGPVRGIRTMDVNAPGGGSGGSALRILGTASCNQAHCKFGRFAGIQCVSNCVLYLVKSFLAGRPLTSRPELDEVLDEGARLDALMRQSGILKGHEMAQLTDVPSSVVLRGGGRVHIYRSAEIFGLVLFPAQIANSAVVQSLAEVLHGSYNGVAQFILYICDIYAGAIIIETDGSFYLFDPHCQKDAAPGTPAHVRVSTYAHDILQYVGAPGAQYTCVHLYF
UniProt P60468: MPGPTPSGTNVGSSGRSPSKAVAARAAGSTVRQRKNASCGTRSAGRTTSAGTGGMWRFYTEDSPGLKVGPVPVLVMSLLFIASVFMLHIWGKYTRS
UniProt O94822: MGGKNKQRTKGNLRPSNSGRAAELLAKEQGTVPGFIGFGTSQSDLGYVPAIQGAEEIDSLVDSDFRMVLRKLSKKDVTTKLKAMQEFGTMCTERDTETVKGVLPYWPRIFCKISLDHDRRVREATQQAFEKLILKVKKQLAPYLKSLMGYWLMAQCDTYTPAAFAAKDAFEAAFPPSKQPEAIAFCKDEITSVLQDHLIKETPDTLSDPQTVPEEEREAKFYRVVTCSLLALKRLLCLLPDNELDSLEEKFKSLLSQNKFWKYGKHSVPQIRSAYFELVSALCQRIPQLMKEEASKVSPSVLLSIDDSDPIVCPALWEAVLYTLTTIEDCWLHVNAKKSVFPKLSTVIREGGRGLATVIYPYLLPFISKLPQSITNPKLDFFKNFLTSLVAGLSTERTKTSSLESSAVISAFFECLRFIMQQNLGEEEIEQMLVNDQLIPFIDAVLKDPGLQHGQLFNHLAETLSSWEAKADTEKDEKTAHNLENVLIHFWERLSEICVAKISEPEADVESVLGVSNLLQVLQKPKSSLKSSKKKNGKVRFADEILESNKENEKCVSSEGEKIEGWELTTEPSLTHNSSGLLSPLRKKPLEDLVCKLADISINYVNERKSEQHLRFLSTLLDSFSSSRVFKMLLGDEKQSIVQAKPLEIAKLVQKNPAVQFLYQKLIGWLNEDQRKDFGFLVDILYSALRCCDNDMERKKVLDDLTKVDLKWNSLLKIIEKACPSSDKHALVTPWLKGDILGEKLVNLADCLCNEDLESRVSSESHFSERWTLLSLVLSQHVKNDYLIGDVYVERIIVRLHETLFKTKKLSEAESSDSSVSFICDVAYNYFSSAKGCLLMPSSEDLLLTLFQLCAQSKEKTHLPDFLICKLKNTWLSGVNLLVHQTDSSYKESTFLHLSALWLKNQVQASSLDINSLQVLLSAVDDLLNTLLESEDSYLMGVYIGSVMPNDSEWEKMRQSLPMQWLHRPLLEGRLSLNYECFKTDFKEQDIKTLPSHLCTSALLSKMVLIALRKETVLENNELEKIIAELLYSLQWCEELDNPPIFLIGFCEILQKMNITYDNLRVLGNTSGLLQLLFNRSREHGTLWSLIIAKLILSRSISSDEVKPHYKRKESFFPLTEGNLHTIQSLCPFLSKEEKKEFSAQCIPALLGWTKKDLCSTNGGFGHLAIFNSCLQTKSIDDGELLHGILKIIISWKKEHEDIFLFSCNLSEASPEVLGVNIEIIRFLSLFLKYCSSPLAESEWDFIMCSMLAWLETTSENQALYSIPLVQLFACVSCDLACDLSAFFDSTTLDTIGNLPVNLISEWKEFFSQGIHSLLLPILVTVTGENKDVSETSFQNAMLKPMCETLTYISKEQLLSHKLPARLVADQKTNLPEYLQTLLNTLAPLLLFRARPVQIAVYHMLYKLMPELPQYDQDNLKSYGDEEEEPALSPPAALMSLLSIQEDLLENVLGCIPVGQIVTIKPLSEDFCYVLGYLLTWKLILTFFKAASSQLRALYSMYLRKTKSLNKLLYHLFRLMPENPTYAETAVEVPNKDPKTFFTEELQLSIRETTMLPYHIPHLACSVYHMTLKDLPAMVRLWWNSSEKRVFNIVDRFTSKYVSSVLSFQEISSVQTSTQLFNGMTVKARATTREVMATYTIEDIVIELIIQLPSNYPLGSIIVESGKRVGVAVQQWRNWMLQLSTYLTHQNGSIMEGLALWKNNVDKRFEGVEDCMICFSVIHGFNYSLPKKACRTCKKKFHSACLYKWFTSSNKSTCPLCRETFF

Results are given in words; binding and its absence hold for the method and conditions named. In cells and extracts the contact can be indirect. Some entries that bind do so weakly or less than the wild type.

Test [1] addresses FLAG-BPLF1, viral ubiquitin deconjugase (vDUB) encoded in the N-terminal domain (aa 1-235) of the Epstein-Barr virus large tegument protein BPLF1 (Epstein-Barr virus) (UniProt P03186). The experiment in a line: co-IP; lysates of transfected HEK293T cells (NP-40 lysis buffer with protease/phosphatase inhibitors, 20 mM NEM, 20 mM iodoacetamide) incubated with anti-FLAG agarose affinity gel for 3 h at 4 °C; western blot of endogenous partners.

The target of test [2] is T1, ZNF598, RQC ubiquitin ligase (human (endogenous in HEK293T)) (UniProt Q86UK7).
T1 sequence: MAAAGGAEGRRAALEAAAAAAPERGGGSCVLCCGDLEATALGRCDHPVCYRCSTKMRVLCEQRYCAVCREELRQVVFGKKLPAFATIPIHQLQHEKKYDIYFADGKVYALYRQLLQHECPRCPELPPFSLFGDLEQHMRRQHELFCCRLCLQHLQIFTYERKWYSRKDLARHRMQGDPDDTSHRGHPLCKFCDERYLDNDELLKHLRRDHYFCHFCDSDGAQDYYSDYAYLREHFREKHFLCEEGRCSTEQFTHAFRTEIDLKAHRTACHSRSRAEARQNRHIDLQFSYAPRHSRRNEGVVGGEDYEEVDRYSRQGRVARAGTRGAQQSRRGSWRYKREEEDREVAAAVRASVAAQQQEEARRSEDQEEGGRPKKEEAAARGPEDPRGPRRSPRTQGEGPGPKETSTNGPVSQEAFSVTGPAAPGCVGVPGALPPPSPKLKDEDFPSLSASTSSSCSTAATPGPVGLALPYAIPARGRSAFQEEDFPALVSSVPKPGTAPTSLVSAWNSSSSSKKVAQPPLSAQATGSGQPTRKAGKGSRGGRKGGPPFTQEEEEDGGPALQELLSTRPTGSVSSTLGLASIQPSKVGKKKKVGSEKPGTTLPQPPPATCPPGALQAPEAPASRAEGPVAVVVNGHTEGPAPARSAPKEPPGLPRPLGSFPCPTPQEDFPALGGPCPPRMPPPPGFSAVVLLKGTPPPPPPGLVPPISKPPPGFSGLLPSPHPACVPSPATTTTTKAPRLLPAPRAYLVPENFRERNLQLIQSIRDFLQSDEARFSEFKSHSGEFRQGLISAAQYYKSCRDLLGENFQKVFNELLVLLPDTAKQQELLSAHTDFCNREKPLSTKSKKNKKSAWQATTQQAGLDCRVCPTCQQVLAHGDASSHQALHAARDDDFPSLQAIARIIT
Nature of the test: co-IP; lysates of transfected HEK293T cells incubated for 4 h with antibodies to endogenous ZNF598, captured on protein G Sepharose beads; isotype-matched Ig control; western blot.

Regarding “ZAKα kinase (Sterile alpha motif and leucine zipper containing kinase ZAKα) (from UniProt Q9NYL2-1 1-800)”, in test [1], the binding result is given as “binds”. The same measure, in the same setting: under “SEC61B, ER translocon subunit (from UniProt P60468 1-96)” stands “binds”; under “Listerin-1 (LTN1), RQC ubiquitin ligase (from UniProt O94822 1-1766)”, “binds”. In the case of “FLAG-BPLF1, viral ubiquitin deconjugase (vDUB) encoded in the N-terminal domain (aa 1-235) of the Epstein-Barr virus large tegument protein BPLF1 (from UniProt P03186 1-235) (domain or fragment)”, the binding result in test [2] is recorded as “binds”.

B1: ZNF598, RQC ubiquitin ligase (protein, UniProt Q86UK7 1-904)
chain: MAAAGGAEGRRAALEAAAAAAPERGGGSCVLCCGDLEATALGRCDHPVCYRCSTKMRVLCEQRYCAVCREELRQVVFGKKLPAFATIPIHQLQHEKKYDIYFADGKVYALYRQLLQHECPRCPELPPFSLFGDLEQHMRRQHELFCCRLCLQHLQIFTYERKWYSRKDLARHRMQGDPDDTSHRGHPLCKFCDERYLDNDELLKHLRRDHYFCHFCDSDGAQDYYSDYAYLREHFREKHFLCEEGRCSTEQFTHAFRTEIDLKAHRTACHSRSRAEARQNRHIDLQFSYAPRHSRRNEGVVGGEDYEEVDRYSRQGRVARAGTRGAQQSRRGSWRYKREEEDREVAAAVRASVAAQQQEEARRSEDQEEGGRPKKEEAAARGPEDPRGPRRSPRTQGEGPGPKETSTNGPVSQEAFSVTGPAAPGCVGVPGALPPPSPKLKDEDFPSLSASTSSSCSTAATPGPVGLALPYAIPARGRSAFQEEDFPALVSSVPKPGTAPTSLVSAWNSSSSSKKVAQPPLSAQATGSGQPTRKAGKGSRGGRKGGPPFTQEEEEDGGPALQELLSTRPTGSVSSTLGLASIQPSKVGKKKKVGSEKPGTTLPQPPPATCPPGALQAPEAPASRAEGPVAVVVNGHTEGPAPARSAPKEPPGLPRPLGSFPCPTPQEDFPALGGPCPPRMPPPPGFSAVVLLKGTPPPPPPGLVPPISKPPPGFSGLLPSPHPACVPSPATTTTTKAPRLLPAPRAYLVPENFRERNLQLIQSIRDFLQSDEARFSEFKSHSGEFRQGLISAAQYYKSCRDLLGENFQKVFNELLVLLPDTAKQQELLSAHTDFCNREKPLSTKSKKNKKSAWQATTQQAGLDCRVCPTCQQVLAHGDASSHQALHAARDDDFPSLQAIARIIT
As for B1, in test [1], the binding result is “binds”.
